# Measured values published in US11959098B2, “Methods and culture media for culturing pluripotent stem cells” (Technion Research & Development Foundation Limited, priority 2010, dated 2024).
# For at least one compound, name, drawing or mass did not settle the structure.
# System: hESCs cultured in suspension
# Assay: Neural differentiation of pluripotent stem cells cultured in suspension
# Format: cell-based, human
# Method: Neural differentiation—To induce neural differentiation single cells cultured in suspension were transferred to a medium without bFGF and the IL6RIL6 chimera. Either retinoic acid (10^−3 M) or Noggin (10 ngr/ml) were added for three to seven days. Three weeks after differentiation induction, the cells were plated for staining with fibronectin. The cells were stained for O4 (oligodendrocytes marker), GFAP (Glial fibrillary acidic protein), nestin and β-tubulin.
# Differentiation into neuronal cells—Cells from the four tested cell lines (I3, I4, I6 and H9.2) were cultured in suspension with cell clump for at least 25 passages. Then, the factors were removed from the culture medium and 5×10^−5 M Retinoic acid was added for 21 Days. The cells were then transferred to fibronectin coated plates and cultured for additional 5 days before harvesting the cells for analysis.
# Human ESCs which are cultured in suspension as single cells are capable of differentiating into the neuronal cell linage—To induce neural differentiation, hESCs which are cultured in suspension as single cells were transferred to a neuronal differentiating medium (without bFGF and the IL6RIL6 chimera) which included either retinoic acid (10^−3 M) or Noggin (10 ngr/ml) as described under “General Materials and Experimental Methods” hereinabove. […]
structure (smiles),measurement,setting,value
CC1=C(/C=C/C(C)=C/C=C/C(C)=C/C(=O)O)C(C)(C)CCC1 [Retinoic acid],"expression of neuronal lineage genes (quantitative RT-PCR, immunostaining)","I3, I4, I6, H9.2 clumps, 5×10^−5 M for 21 days, then 5 days on fibronectin","expression of genes of the neuronal cell lineage such as PAX6, HNF, nestin, β-tubulin and PSA-NCAM"
same,"differentiation into neuronal progenitor cells (GFAP, O4, β-Tubulin, Nestin staining)","hESC single cells, retinoic acid (10^−3 M) or Noggin (10 ngr/ml), three weeks after induction",differentiated into neuronal progenitor cells
